These results are taken from publication PMC9701752.

No constants are given. Whether binding was seen depends on the method and setting. Some entries that bind do so weakly or less than the wild type.

The target in this assay is FLT3 transmembrane domain construct for the AraTM assay (five extracellular residues, putative TMD, 20 cytoplasmic juxtamembrane residues). As to the kind of experiment: DN-AraTM transcriptional reporter assay; TMD fusions to AraC (FLT3) and to inactive AraC* (competitor) co-expressed with the reporter pAraGFPCDF in AraC-deficient E. coli SB1676, 30 °C; GFP fluorescence at 530 nm over absorbance at 580 nm, normalised to the negative control and to expression (anti-MBP blot); a fall of GFP signal means association of the competitor with FLT3-AraC. Background: Reporter assays use an easily measured gene product as a stand-in for the process of interest.

In the case of QDNISFYATIGVCLLFIVVLTLLICHKYKKQFRYESQLQMVQVTG (domain or fragment), the binding result is on record as “binds”.
